The target in this series is EpCAM (cell membrane + SKBR3 and HepG2 cells) (human) (UniProt P16422). As to the kind of experiment: cell capture by aptamer-bearing DNA array, CLSM with EpCAM/CD45 immunostaining. The conditions noted are these: MMDA hunter, tumor cells, avidity and whole-cell binding, no Kd; Capture at 37 C for 60 min with 100 ug/mL MMDA hunter and 5000 cells; protein on the cell surface; folded or branched DNA.

Chains of the proteins cited; added tags and fusions are not shown. Residues count along the entry.
UniProt P16422, 24-314: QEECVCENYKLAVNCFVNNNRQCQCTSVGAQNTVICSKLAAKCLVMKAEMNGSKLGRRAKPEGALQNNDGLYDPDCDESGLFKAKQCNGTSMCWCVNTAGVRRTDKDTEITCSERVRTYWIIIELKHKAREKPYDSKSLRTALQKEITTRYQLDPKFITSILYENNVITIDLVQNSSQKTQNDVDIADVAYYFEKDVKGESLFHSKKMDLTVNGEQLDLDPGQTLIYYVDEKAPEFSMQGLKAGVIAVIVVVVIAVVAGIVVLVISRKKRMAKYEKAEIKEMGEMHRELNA

Construct, isoform or probe ends are uncertain for at least one entry. Where cells or extracts were used, other partners may take part.

Regarding “AGGCACCATCGTAGGTTTCTTGCCAGGCACCATCGTAGGTTTCTTGCCAGGCACCATCGTAGGTTTCTTGCCAGTATGCGTTCACTACAGAGGTTGCGTCTGTCCCACGTTGTCATGGGGGGTTGGCCTG”, the binding result is “binds”.

The record behind these values is publication PMC12677621.
